In PubChem BioAssay AID588590 (National Center for Advancing Translational Sciences (NCATS), 2011):
The whole screen tested about 390,000 compounds, of which about 4,000 (1%) were called active. Inconclusive means that the source gave no clear call. Such entries were picked first, then a sample of the others. Calls follow the shape of the dose curve; as a rule, active = well fitted inhibition curve with a large enough effect; inconclusive = small, poorly fitted or top-dose-only effect, or another doubt; inactive = no such curve, though single readings can be large or run the other way. Where the call is inconclusive, the potency comes from a doubtful curve fit.

Sequences of proteins named here, by UniProt entry; tags and fusion partners are left off. A change or cut given only in a name is not applied to a line headed by its entry.
UniProt Q9UNA4: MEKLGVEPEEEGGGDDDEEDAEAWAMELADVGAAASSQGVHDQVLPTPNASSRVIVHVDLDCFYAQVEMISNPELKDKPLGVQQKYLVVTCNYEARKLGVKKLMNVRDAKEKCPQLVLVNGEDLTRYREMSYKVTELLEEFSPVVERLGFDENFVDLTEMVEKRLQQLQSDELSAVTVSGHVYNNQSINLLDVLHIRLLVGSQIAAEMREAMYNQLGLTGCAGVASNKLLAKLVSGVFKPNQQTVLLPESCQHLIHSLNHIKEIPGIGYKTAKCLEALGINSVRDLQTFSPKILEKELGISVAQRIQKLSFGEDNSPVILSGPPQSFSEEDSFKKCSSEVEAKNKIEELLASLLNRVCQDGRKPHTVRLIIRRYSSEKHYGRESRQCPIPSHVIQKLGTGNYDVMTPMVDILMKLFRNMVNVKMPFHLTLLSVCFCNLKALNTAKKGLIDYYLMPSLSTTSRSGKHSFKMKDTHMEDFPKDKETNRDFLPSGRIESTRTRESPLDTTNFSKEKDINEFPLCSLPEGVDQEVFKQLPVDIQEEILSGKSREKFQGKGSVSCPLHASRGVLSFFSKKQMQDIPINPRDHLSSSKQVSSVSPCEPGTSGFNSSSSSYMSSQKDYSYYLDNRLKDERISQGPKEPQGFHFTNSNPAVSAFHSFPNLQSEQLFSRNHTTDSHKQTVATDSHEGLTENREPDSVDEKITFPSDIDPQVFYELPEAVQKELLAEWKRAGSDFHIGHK

target: DNA polymerase iota (Homo sapiens) (UniProt Q9UNA4); test: qHTS for Inhibitors of Polymerase Iota; conditions: Pol iota fluorescent replication assay, 10 min; series mostly up to 115 µM; activity, negative = inhibition: at the top concentration
In short: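 Pol iota at 10 nM preincubated 15 min with compounds at room temperature; reaction started with fluorescent substrate, 50 nM final. Fluorescence read kinetically at 0 and 10 min; buffer-only wells as negative control.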
Potency is read from the fitted curve at half-maximal effect.

Compound	Potency	activity, negative = inhibition
O=c1cccccc1NN=C1CCCCC1	inconclusive: 56.2 µM [inhibitor, partial curve, poor fit]	–
CN(CC(=O)Nc1ccc(N2CCOCC2)cc1)C(=O)c1ccc(CS(C)(=O)=O)cc1	inconclusive: 70.8 µM [inhibitor, partial curve, poor fit]	–
CCOc1ccc2nc(SCC(=O)c3ccc(C)s3)sc2c1	–	inactive: 14.6%
CC1CCN(C(=O)CSc2c3c(nc4ccc(Cl)cc24)CCCC3)CC1	–	inactive: 1.73%
O=C(CN1C(=O)NC2(CCCC2)C1=O)OCc1c(F)cccc1Cl	–	inactive: 58.9%
COc1ccc(/C=C/C(=O)O)cc1S(=O)(=O)Nc1ccc2c(c1)OCO2	–	inactive: -9.86%
CC(C(=O)Nc1ccc(Cl)cc1)c1ncc(C(F)(F)F)cc1Cl (configuration not stated)	inconclusive: 89.1 µM [inhibitor, partial curve, poor fit]	–
CN(C)S(=O)(=O)Oc1cccc(C(=O)Nc2ccc(Cl)c(Cl)c2)c1	inconclusive: 39.8 µM [inhibitor, single point]	–
COc1cc(/C=C/c2cccc[n+]2C)ccc1OCC(=O)Nc1ccccc1C	–	inactive: 9.8%
CCOC(=O)c1[nH]c2c(c1Cc1ccccc1)C(=O)CC(c1ccc(Cl)cc1)C2 (configuration not stated)	inconclusive: 39.8 µM [inhibitor, partial curve, poor fit]	–
CCCOC(=O)C1=C(C)N(C)C(=O)NC1c1cc2c(cc1Br)OCO2 (configuration not stated)	inconclusive: 100 µM [inhibitor, single point]	–
O=C(c1cc(-c2cccc3ccccc23)nc2ccccc12)N1CCN(CCO)CC1	inconclusive: 22.4 µM [inhibitor, partial curve, poor fit]	–
COc1cccc(NC(=O)Nc2ccc(Br)cn2)c1	inconclusive: 100 µM [inhibitor, partial curve, poor fit]	–
CCOC(=O)c1cc2c(=O)n3ccccc3nc2n(Cc2ccco2)c1=NC(=O)c1cccnc1	inconclusive: 39.8 µM [inhibitor, partial curve, poor fit]	–
O=[N+]([O-])c1ccc(Cl)c(S(=O)(=O)/N=C(/Sc2ccc(Br)cc2)c2ccccc2)c1	–	inactive: 18.5%
CCOc1ccccc1NC(=O)c1sc2nc3n(c(=O)c2c1C)CCCCC3	–	inactive: 16.8%
CCOc1ccc(CC(=O)Nc2ccc(-c3ccc4nnc(C)n4n3)cc2)cc1	inconclusive: 44.7 µM [inhibitor, partial curve, poor fit]	–
CCS(=O)(=O)N1Cc2ccccc2CC1C(=O)Nc1nnc(SCc2ccc(C#N)cc2)s1 (configuration not stated)	inconclusive: 44.7 µM [inhibitor, partial curve, poor fit]	–
COc1ccc(-c2nnn(CC(=O)N(c3cccc(O)c3)C(C)C(=O)NC3CCCC3)n2)cc1OC (configuration not stated)	inconclusive: 44.7 µM [inhibitor, partial curve]	–
COCCCn1c(SCC(=O)Nc2sc3c(c2C#N)CCCC3)nnc1-c1ccncc1	inconclusive: 12.6 µM [inhibitor, single point]	–
O=C(COc1ccc(S(=O)(=O)NC2CCCC2)cc1)NCC1CCCO1 (configuration not stated)	–	inactive: 42%

Compound	Potency	activity, negative = inhibition
Cn1c(SCc2ccc(F)cc2)nc2ccc(C(=O)NCc3ccc(Cl)cc3)cc21	inconclusive: 100 µM [inhibitor, single point]	–
CCN(CC)CCN1C(=O)C(O)=C(C(=O)c2cccs2)C1c1ccc(C)o1 (configuration not stated)	inconclusive: 31.6 µM [inhibitor, partial curve]	–
COc1cc(C#Cc2c(-c3ccccc3OC)oc3ccccc23)cc(OC)c1	inconclusive: 20 µM [inhibitor, single point]	–
COC/C=C/C1=CC2=CC(=O)C(C)(OC(=O)c3cnc4ccccc4n3)C(=O)C2=CN1c1ccc(OC)cc1 (configuration not stated)	inconclusive: 39.8 µM [inhibitor, single point]	–
CCC1CN(C(=O)N2CCC(C(=O)NCCc3ccc(Cl)cc3)CC2)c2ccccc2O1 (configuration not stated)	–	inactive: 13%
O=S1(=O)CCOC[C@H](c2ccccc2)N1Cc1cccc(Cl)c1	inconclusive: 100 µM [inhibitor, partial curve, poor fit]	–
Cc1ccc(N2CC(C(=O)Nc3nc4ccc(S(C)(=O)=O)cc4s3)CC2=O)cc1C (configuration not stated)	inconclusive: 50.1 µM [inhibitor, partial curve, poor fit]	–
O=C(Cc1cccs1)NCc1cccs1	inconclusive: 56.2 µM [inhibitor, partial curve, poor fit]	–
CC1(C)Cc2ccccc2-c2nnc(SCC(=O)Nc3ccc4c(c3)OCO4)n21	inconclusive: 50.1 µM [inhibitor, partial curve, poor fit]	–
CC(=O)Nc1ccc(C(=O)CSc2nnnn2C(C)C)cc1	inconclusive: 20 µM [inhibitor, single point]	–
CCC(=O)Oc1oc(-c2ccccc2)nc1C=Nc1ccccc1OC	inconclusive: 10 µM [inhibitor, partial curve, poor fit]	–
COc1ccccc1N1CCN(C2CCCC(C)C2)CC1 (configuration not stated)	inconclusive: 50.1 µM [inhibitor, full curve]	–
COc1ccc(N2CCN(S(=O)(=O)c3ccc4oc(=O)c5ncn(C)c5c4c3)CC2)cc1	–	inactive: -5.43%
COc1ncccc1C(=O)N1CCCC(N2CCN(c3cccc(Cl)c3)CC2)C1 (configuration not stated)	inconclusive: 89.1 µM [inhibitor, single point]	–
O=C(CSC1=Nc2ccccc2C2=NC(CC(=O)NC3CCCCC3)C(=O)N12)Nc1ccc(F)cc1 (configuration not stated)	inconclusive: 35.5 µM [inhibitor, full curve, poor fit]	–
C=C[C@@H]1c2cc(C)ccc2N(S(=O)(=O)c2ccc(C)cc2)[C@H](c2ccc(C(=O)OC)cc2)C1(C#N)C#N	–	inactive: 11.7%
Cc1cccc(C)c1NC(=O)C(NS(=O)(=O)c1ccc2c(c1)CCC(=O)N2)c1ccccc1 (configuration not stated)	inconclusive: 89.1 µM [inhibitor, single point]	–
O=C(N/N=C/c1ccccc1F)c1cc2c(ccc3ccccc32)o1	inconclusive: 35.5 µM [inhibitor, partial curve]	–
CC(=O)OCC(NC(=O)C(COCc1ccccc1)NC(=O)OC(C)(C)C)C1OC(n2cc(C)c(=O)[nH]c2=O)C(OC(C)=O)C1OC(C)=O (configuration not stated)	inconclusive: 89.1 µM [inhibitor, single point]	–
O=C(Nc1cccc(-c2cnc3ccccc3n2)c1)c1cccc(NC(=O)c2ccco2)c1	–	inactive: 13.6%
Cc1ccc(CNC(=O)c2ccc(N3CCC4(CC3)CC(c3cccc(Br)c3)=NO4)c(N)c2)cc1	inconclusive: 28.2 µM [inhibitor, single point]	–

Compound	Potency	activity, negative = inhibition
CC(C)Cc1nc2c(nnn2Cc2ccccc2F)c(=O)[nH]1	inconclusive: 35.5 µM [inhibitor, partial curve, poor fit]	–
Cc1ccc(-n2c(N)c(C(=O)N3CCOCC3)sc2=S)c(C)c1	inconclusive: 28.2 µM [inhibitor, single point]	–
Cc1cc(C(=O)CSc2nn3c(=O)c(C(C)(C)C)nnc3s2)c(C)n1-c1ccc(F)cc1	inconclusive: 14.1 µM [inhibitor, full curve, poor fit]	–
O=C(OCCOCCN=C1NS(=O)(=O)c2ccccc21)c1ccncc1	inconclusive: 0.355 µM [inhibitor, full curve, poor fit]	–
CCN(CC)c1ccc2oc(=O)c(C)nc2c1	inconclusive: 15.8 µM [inhibitor, partial curve, poor fit]	–
O=C1NC(=Nc2cccnc2)S/C1=C\c1cccc(F)c1	–	inactive: -12.1% [at 58.9 µM]
CCC1S/C(=N/C(=O)NC2CCCCC2)NC1=O (configuration not stated)	inconclusive: 7.94 µM [inhibitor, partial curve, poor fit]	–
Cc1cnn(C(=S)NCc2ccco2)c1	inconclusive: 25.1 µM [inhibitor, partial curve]	–
Cc1ccnc(NC(=O)C2CCC(CNc3c(N4CCCC4)c(=O)c3=O)CC2)c1 (configuration not stated)	inconclusive: 17.8 µM [inhibitor, partial curve, poor fit]	–
C=C(C)COc1ccc(-c2ncncc2-c2ccc(Cl)cc2)c(O)c1	inconclusive: 79.4 µM [inhibitor, partial curve, poor fit]	–
Cc1ccc(NC(=O)C2Cc3ccccc3CN2C(=O)c2ccco2)cc1S(=O)(=O)N(C)C (configuration not stated)	inconclusive: 79.4 µM [inhibitor, partial curve, poor fit]	–
Cc1cc(Oc2ccc(C#N)cc2)nc(NCc2ccccc2)n1	inconclusive: 39.8 µM [inhibitor, single point]	–
Fc1cccc(NC(=S)NNc2c3ccccc3nc3ccccc23)c1	inconclusive: 28.2 µM [inhibitor, single point]	–
COc1ccc(NC(=O)COC(=O)CCc2nc3ccccc3c(=O)[nH]2)cc1Cl	inconclusive: 35.5 µM [inhibitor, single point]	–
Clc1ccccc1CONc1ncnc2nonc12	inconclusive: 39.8 µM [inhibitor, single point]	–
COC(=O)c1ccc(NS(=O)(=O)c2ccc(-c3cc(C)no3)s2)cc1	inconclusive: 89.1 µM [inhibitor, partial curve, poor fit]	–
O=C(O)C1CCC(CNS(=O)(=O)c2ccc(Br)cc2)CC1 (configuration not stated)	inconclusive: 100 µM [inhibitor, single point]	–
CCOc1ccc(NC(=O)CCNS(=O)(=O)c2ccc3c(c2)oc(=O)n3C)cc1	inconclusive: 100 µM [inhibitor, single point]	–
N/C(=N\OC(=O)N1CCOCC1)c1ccc(Cl)cc1	–	inactive: 17.4%
COc1ccc(NC(=O)/C(C#N)=C\c2ccc(Br)o2)cc1	active: 10 µM	–

Structures shown so far containing a COOH group, in the order listed:
Compound	Potency	activity, negative = inhibition
COc1ccc(/C=C/C(=O)O)cc1S(=O)(=O)Nc1ccc2c(c1)OCO2	–	inactive: -9.86%
O=C(O)C1CCC(CNS(=O)(=O)c2ccc(Br)cc2)CC1 (configuration not stated)	inconclusive: 100 µM [inhibitor, single point]	–

Arranged by count of non-hydrogen atoms (high to low): part of the list above.
Compound	Potency	activity, negative = inhibition
O=C(c1cc(-c2cccc3ccccc23)nc2ccccc12)N1CCN(CCO)CC1	inconclusive: 22.4 µM [inhibitor, partial curve, poor fit]	–
Fc1cccc(NC(=S)NNc2c3ccccc3nc3ccccc23)c1	inconclusive: 28.2 µM [inhibitor, single point]	–
N/C(=N\OC(=O)N1CCOCC1)c1ccc(Cl)cc1	–	inactive: 17.4%
